Test results reported in PMC8103281.
No constants are given. Whether binding was seen depends on the method and setting.

Amino acid sequences for entries named in this document (tags omitted).
UniProt P26447: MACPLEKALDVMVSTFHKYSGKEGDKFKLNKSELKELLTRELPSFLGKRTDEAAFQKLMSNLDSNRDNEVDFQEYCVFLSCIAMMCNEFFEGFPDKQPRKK

Molecular target: GST-HMG20A wild-type (2–347)-His6 (human) (UniProt Q9NP66)
Test: condition: 15 µg with 45 µg GST-HMG20A-His6 in 500 µL; pull-down; GST-HMG20A-His6 (45 µg) incubated with S100 proteins or calmodulin (15 µg) in 500 µL 150 mM NaCl, 20 mM Tris-HCl pH 7.5, 0.05% Tween 20, with 2 mM CaCl2 or 2 mM EGTA, 1 h room temperature; glutathione-sepharose; Coomassie staining; both purified

S100A4 (from UniProt P26447 1-101)
binding: no binding

B1: S100A11 (protein, UniProt P31949 1-105)
chain: MAKISSPTETERCIESLIAVFQKYAGKDGYNYTLSKTEFLSFMNTELAAFTKNQKDPGVLDRMMKKLDTNSDGQLDFSEFLNLIGGLAMACHDSFLKAVPSQKRT
binding: no binding

B2: S100A12 (protein, UniProt P80511 1-92)
chain: MTKLEEHLEGIVNIFHQYSVRKGHFDTLSKGELKQLLTKELANTIKNIKDKAVIDEIFQGLDANQDEQVDFQEFISLVAIALKAAHYHTHKE
binding: no binding
